Assay results reported in PubChem BioAssay AID328 (DTP/NCI, 2004).
The list shows only some results of the screen, not a fair sample: it gathers tests that were run many times, whatever their T/C, doses with no T/C, and many T/C values between a quarter and a half above the control. Further doses and runs are listed elsewhere. T/C is the treated group as % of the vehicle group. Some entries give survivors of the animals treated and no T/C: the source files T/C as zero there, which appears to mark a toxic dose or a test without result, not a measured value. Some doses without a T/C left all or most animals alive at the check, yet need not have been tolerated: survival well below the control is almost never listed, so the zero probably covers shortened survival too. Counts of survivors are from the toxicity check (mostly the fifth day) where no day follows; animals may have died later. Schedules are NCI's codes, taken here to give the interval after Q, in days (D) or hours (H), and the number of doses after X. Some structures stand for samples that the source files as different forms (salt, stereo form or complex); doses refer to the form tested. Counts like (3×) say how often a value occurs here. Some entries were tested several times; the values are given in rising order. For survival time, this PubChem deposit counts one and a half times the control or more as active, and values a quarter to a half above the control carry no call in these data; other NCI protocols may use other cut-offs. Some T/C values carry the count of animals alive at the toxicity check (mostly the fifth day); without a count, all were alive then.

Test system: BDF1 mice, P388 leukemia ip, median survival T/C
Test: NCI In Vivo Anticancer Drug Screen. Data for tumor model P388 Leukemia (intraperitoneal) in B6D2F1 (BDF1) mice
Conditions: T/C endpoint: median survival time, higher T/C = longer survival
Summary of the method: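 Survival ratio, drug arm over vehicle arm, in mice with a transplanted tumour.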

[1] = dose: 100.0 mg/kg/injection, schedule: Q01DX009 (ip), vehicle: saline
[2] = dose: 100.0 mg/kg/injection, schedule: Q01DX009 (ip), vehicle: saline with Tween-80
[3] = dose: 200.0 mg/kg/injection, schedule: Q01DX009 (ip), vehicle: saline with Tween-80
[4] = dose: 200.0 mg/kg/injection, schedule: Q01DX009 (ip), vehicle: saline sonified
[5] = dose: 6.5 mg/kg/injection, schedule: Q01DX005 (iv), vehicle: other

Compound: COC(=O)C1C(O)C(C)C(O)C(C)/C=C\C=C(C)C(=O)Nc2c(C)c(OC(C)=O)c3c(c2O)C(=O)C(C)=C2OCOC(=C23)C(C)=CC(C)(O)C(O)C(C)C1O (stereo not given)
- survivor count (dose: 100.0 mg/kg/injection, schedule: Q01DX009 (ip), vehicle: Klucel (hydroxypropylcellulose) (HPC)): 3 of 6
- T/C (dose: 150.0 mg/kg/injection, schedule: Q01DX009 (ip), vehicle: Klucel (hydroxypropylcellulose) (HPC)): 126 % of control
- survivor count (dose: 300.0 mg/kg/injection, schedule: Q01DX009 (ip), vehicle: Klucel (hydroxypropylcellulose) (HPC)): 2 of 6

Compound: COC(=O)C(CSCc1ccccc1)NC(=O)CCNC(=O)OCc1ccccc1 (stereo not given)
- T/C (dose: 25.0 mg/kg/injection, schedule: Q04DX003 (ip), vehicle: Klucel (hydroxypropylcellulose) (HPC)): 127 % of control

Compound: COC(=O)c1cc(Cl)ccc1OCC(=O)Nc1ccc([N+](=O)[O-])cc1
- survivor count (dose: 200.0 mg/kg/injection, schedule: Q04DX003 (ip), vehicle: Klucel (hydroxypropylcellulose) (HPC)): 6 of 6

Compound: CC1(C)CCC(C)(C)c2c1ccc(O)c2Sc1c(O)ccc2c1C(C)(C)CCC2(C)C
- T/C (dose: 400.0 mg/kg/injection, schedule: Q01DX009 (ip), vehicle: saline with Tween-80): 125 % of control

Compound: OCCN1CCN(CCCN2c3ccccc3Sc3cccnc32)CC1
- T/C (dose: 50.0 mg/kg/injection, schedule: Q01DX009 (ip), vehicle: saline): 126 % of control [5 of 6 alive]
- survivor count (dose: 75.0 mg/kg/injection, schedule: Q04DX003 (ip), vehicle: saline): 6 of 6
- T/C [1]: 133 and 137 % of control [5 of 6 alive]
- survivor count (dose: 150.0 mg/kg/injection, schedule: Q04DX003 (ip), vehicle: saline): 0 of 6
- survivor count (dose: 200.0 mg/kg/injection, schedule: Q01DX009 (ip), vehicle: saline): 0 of 6

Compound: Cc1cc2nc(Oc3ccccc3)nc(=O)n2c(C)n1
- survivor count (dose: 50.0 mg/kg/injection, schedule: Q01DX009 (ip), vehicle: saline with Tween-80): 1 of 6
- survivor count [2]: 5 of 6
- survivor count [3]: 0 of 6

Compound: CN(C)C(=S)N=Nc1c(O)[nH]c2ccccc12
- survivor count (dose: 6.25 mg/kg/injection, schedule: Q01DX009 (ip), vehicle: saline with Tween-80): 6 of 6
- survivor count (dose: 25.0 mg/kg/injection, schedule: Q01DX009 (ip), vehicle: saline with Tween-80): 6 of 6
- survivor count (dose: 50.0 mg/kg/injection, schedule: Q01DX009 (ip), vehicle: saline sonified): 6 of 6
- survivor count (dose: 100.0 mg/kg/injection, schedule: Q01DX009 (ip), vehicle: saline sonified): 6 of 6
- survivor count [4]: 6 of 6
- survivor count (dose: 200.0 mg/kg/injection, schedule: Q04DX003 (ip), vehicle: saline sonified): 6 of 6

Compound: COc1cc(Cc2nccc3cc(OC)c(OC)cc23)c(C(C)=O)cc1OC
- T/C (dose: 12.0 mg/kg/injection, schedule: Q01DX009 (ip), vehicle: saline): 142 % of control
- T/C (dose: 18.0 mg/kg/injection, schedule: Q01DX009 (ip), vehicle: saline): 142 % of control

Compound: Cc1ccc(Cl)cc1O
- survivor count [3]: 5 of 6
- T/C (dose: 200.0 mg/kg/injection, schedule: Q04DX003 (ip), vehicle: alcohol): 127 % of control
- survivor count (dose: 300.0 mg/kg/injection, schedule: Q04DX003 (ip), vehicle: alcohol): 6 of 6
- survivor count (dose: 450.0 mg/kg/injection, schedule: Q04DX003 (ip), vehicle: alcohol): 1 of 6

Compound: CO[C@H]1C[C@H](O[C@H]2CC[C@]3(C=O)[C@H]4CC[C@]5(C)[C@@H](C6=CC(=O)OC6)CC[C@]5(O)[C@@H]4CC[C@]3(O)C2)O[C@H](C)[C@H]1O[C@@H]1O[C@H](CO[C@@H]2O[C@H](CO)[C@@H](O)[C@H](O)[C@H]2O)[C@@H](O)[C@H](O)[C@H]1O
- survivor count (dose: 2.0 mg/kg/injection, schedule: Q01DX010 (ip), vehicle: saline): 3 of 6

Compound: CCCCN(CCCC)CCCC#N
- T/C [2]: 129 % of control
- T/C [1]: 129 % of control
- T/C (dose: 150.0 mg/kg/injection, schedule: Q01DX009 (ip), vehicle: saline with Tween-80): 125 % of control

Compound: COc1cc(NS(C)(=O)=O)ccc1Nc1c2ccccc2nc2ccccc12
- T/C (dose: 0.37 mg/kg/injection, schedule: Q01DX009 (ip), vehicle: saline): 140 % of control
- T/C (dose: 3.12 mg/kg/injection, schedule: Q01DX009 (ip), vehicle: Klucel (hydroxypropylcellulose) (HPC)): 149 % of control [5 of 6 alive]
- T/C (dose: 3.3 mg/kg/injection, schedule: Q01DX005 (iv), vehicle: other): 128 and 134 % of control
- survivor count (dose: 4.0 mg/kg/injection, schedule: Q01DX009 (ip), vehicle: other): 10 of 10 (4×)
- survivor count (dose: 6.5 mg/kg/injection, schedule: Q01DX005 (ip), vehicle: other): 10 of 10
- T/C [5]: 143 % of control [9 of 10 alive]
- survivor count [5]: 10 of 10
- T/C (dose: 6.6 mg/kg/injection, schedule: Q04DX003 (iv), vehicle: other): 134 % of control
- survivor count (dose: 8.0 mg/kg/injection, schedule: Q01DX009 (ip), vehicle: other): 8 of 10 (2×) and 10 of 10 (2×)
- T/C (dose: 10.0 mg/kg/injection, schedule: Q04DX003 (iv), vehicle: other): 134 % of control
- T/C (dose: 10.0 mg/kg/injection, schedule: Q08DX002 (iv), vehicle: other): 132 % of control
- survivor count (dose: 13.0 mg/kg/injection, schedule: Q01DX005 (ip), vehicle: other): 6 of 10
- survivor count (dose: 13.0 mg/kg/injection, schedule: Q01DX005 (iv), vehicle: other): 9 of 10 and 10 of 10
- T/C (dose: 13.0 mg/kg/injection, schedule: Q04DX003 (iv), vehicle: other): 146 % of control
- survivor count (dose: 15.0 mg/kg/injection, schedule: Q04DX003 (ip), vehicle: clinical formulation): 6 of 8
- T/C (dose: 15.0 mg/kg/injection, schedule: Q08DX002 (iv), vehicle: other): 141 % of control
- T/C (dose: 16.0 mg/kg/injection, schedule: Q04DX003 (ip), vehicle: lactic acid): 137 and 145 % of control
- survivor count (dose: 16.7 mg/kg/injection, schedule: Q04DX003 (ip), vehicle: other): 8 of 8
- survivor count (dose: 22.6 mg/kg/injection, schedule: Q04DX003 (ip), vehicle: other): 1 of 10
- survivor count (dose: 22.6 mg/kg/injection, schedule: Q08DX002 (ip), vehicle: other): 5 of 10
- survivor count (dose: 24.0 mg/kg/injection, schedule: Q04DX003 (ip), vehicle: lactic acid): 4 of 10, 7 of 10, 9 of 10
- survivor count (dose: 25.0 mg/kg/injection, schedule: Q04DX003 (ip), vehicle: clinical formulation): 3 of 8
- survivor count (dose: 26.0 mg/kg/injection, schedule: Q01DX005 (iv), vehicle: other): 1 of 10
- survivor count (dose: 34.0 mg/kg/injection, schedule: Q04DX003 (ip), vehicle: other): 0 of 10
- survivor count (dose: 34.0 mg/kg/injection, schedule: Q08DX002 (ip), vehicle: other): 4 of 10
- survivor count (dose: 51.0 mg/kg/injection, schedule: Q04DX003 (ip), vehicle: other): 3 of 10
- survivor count (dose: 51.0 mg/kg/injection, schedule: Q04DX003 (iv), vehicle: other): 6 of 10
- survivor count (dose: 51.0 mg/kg/injection, schedule: Q08DX002 (ip), vehicle: other): 0 of 10
- survivor count (dose: 51.0 mg/kg/injection, schedule: Q08DX002 (iv), vehicle: other): 0 of 10

Compound: CC1(C)N=C(N)N=C(N)N1c1cccc(OCCOc2ccc(NC(=O)CBr)cc2)c1
- survivor count [4]: 1 of 6

Compound: CCCCCC(=O)O[C@]1(C(C)=O)CC[C@H]2[C@@H]3CCC4=CC(=O)CC[C@]4(C)[C@H]3CC[C@@]21C
- T/C [2]: 125 % of control [5 of 6 alive]

Compound: O=C(O)CCC1(c2ccccc2)CCCC1=O (stereo not given)
- survivor count (dose: 3.12 mg/kg/injection, schedule: Q01DX009 (ip), vehicle: water): 5 of 6
- survivor count (dose: 12.5 mg/kg/injection, schedule: Q01DX009 (ip), vehicle: water): 6 of 6
- survivor count (dose: 25.0 mg/kg/injection, schedule: Q01DX009 (ip), vehicle: water): 6 of 6

Compound: Cc1nc2c(N)nn(C)c2nc1C
- survivor count (dose: 400.0 mg/kg/injection, schedule: Q04DX003 (ip), vehicle: saline with Tween-80): 1 of 6
